According to patent US10010520B2, “Combined application of isothiocyanate compound and anti-cancer medicine” (JC (WUXI) COMPANY, INC., priority 2013, dated 2018):

System: Jurkat E6-1 cells
Test: CellTiter-Glo cell viability, drugs alone or in combination, Jurkat E6-1 cells
Format: cell-based
Conditions: Homo sapiens, Jurkat E6.1, 72 h, read-out: (Bs)50, IC50 of drug B when used alone
Procedure: isothiocyanates or derivatives thereof and DNA-effecting or influencing anticancer drugs, kinase-inhibiting anticancer drugs or hormonal anticancer drugs for endocrine therapy were administered separately or in combination to cancer cells. Cells were seeded into 384-well plates, and cultured for 24 hours in a CO2 incubator. Drugs were dissolved in DMSO and diluted to 9 concentration-gradients in 96 well plates, and then added to corresponding cells in 384-well plates, in which the concentrations of DMSO in 384 well plates were less than 1%. Triplicate wells were set for each concentration. After administration, the cells were cultured in the CO2 incubator for another 72 hrs, and afterwards, cell viability was tested by using CellTiter-Glo® reagent and luminescence detector. And IC50 values of each administration group were calculated.
CI value was calculated by the following formula: CI=(Am)50/(As)50+(Bm)50/(Bs)50,
Triplicate wells were set for each co-administration cell well.
After administration, cells were cultured in the CO2 incubator for another 72 hrs, and afterwards, cell viability was tested by using CellTiter-Glo® reagent and luminescence detector. Curves were plotted according to concentrations or logarithm concentrations of drug A vs cell inhibition rate in the corresponding cell well, and IC50, i.e. (Am)50 was calculated. […]

IC50: 1230 nM
Compound: O=C(CCCCCCC(=O)Nc1ccccc1)NO [Vorinostat, vorinostat, reference compound]
